Values quoted from earlier work as cited in patent publication US11338055B2, “Wound dressing” (Animal Ethics Pty Ltd, priority 2017, dated 2022).
Some entries share one result that the patent states for a list of compounds. Some compounds share one range, which may span the group rather than tell each member.

Conditions: usually between about; for duration of action (anaesthesia): long duration anaesthetic agents

SMILES | duration of action (anaesthesia) [h] | onset of action (rapid onset anaesthetic agents) [min]
CCCCN1CCCCC1C(=O)Nc1c(C)cccc1C (stereo not shown) [bupivacaine] | 4 to 12 | 
CCCCN1CCCC[C@H]1C(=O)Nc1c(C)cccc1C [levo-bupivacaine] | 4 to 12 | 
CCCNC(C)C(=O)Nc1ccccc1C (stereo not shown) [prilocaine] |  | 5 to 10
CCCN1CCCC[C@H]1C(=O)Nc1c(C)cccc1C [ropivacaine] | 4 to 12 | 
